Drawing on patent US20030108992A1, this text covers binding for 2 molecules.

No constants are given. Whether binding was seen depends on the method and setting. Some entries that bind do so weakly or less than the wild type. For some assays here: Where a sequence is shown, tags or fusion partners need not be part of it.

In experiment [1] the target is T1, Fas with the death domain, CFP and YFP fusions (human), P25445.
T1 chain: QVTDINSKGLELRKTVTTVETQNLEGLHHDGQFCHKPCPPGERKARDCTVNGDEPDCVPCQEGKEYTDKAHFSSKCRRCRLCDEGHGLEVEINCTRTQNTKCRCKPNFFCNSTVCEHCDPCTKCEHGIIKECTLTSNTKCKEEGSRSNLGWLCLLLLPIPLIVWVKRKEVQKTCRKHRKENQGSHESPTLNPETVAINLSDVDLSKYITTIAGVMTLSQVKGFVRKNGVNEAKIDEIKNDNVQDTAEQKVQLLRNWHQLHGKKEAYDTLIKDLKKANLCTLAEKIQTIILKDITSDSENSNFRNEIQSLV
Kind of experiment: flow cytometric FRET, 293T. As to conditions: remark: other sources report otherwise. (In general: A flow cytometer gives signals particle by particle.)

Experiment [2] addresses T2, Fas (endogenous, native receptor on T lymphoma cells), P25445.
T2 chain: T1 chain
The experiment can be described thus: immunoprecipitation of Fas signaling complexes from H9 cells after APO-1 or FasL, Western blot. The following applies: remark: other sources report otherwise.

B1: Fas with the death domain, CFP and YFP fusions, P25445 26-335 (receptor, human, UniProt P25445 26-335, looked up, not shown: large carriers)
chain: T1 chain
Turning to B1, the binding result in experiment [1] is “binds”.

B2: FADD, Q13158 1-208 (protein, UniProt Q13158 1-208, looked up)
chain: MDPFLVLLHSVSSSLSSSELTELKFLCLGRVGKRKLERVQSGLDLFSMLLEQNDLEPGHTELLRELLASLRRHDLLRRVDDFEAGAAAGAAPGEEDLCAAFNVICDNVGKDWRRLARQLKVSDTKIDSIEDRYPRNLTERVRESLRIWKNTEKENATVAHLVGALRSCQMNLVADLVQEVQQARDLQNRSGAMSPMSWNSDASTSEAS
As for B2, the binding result in experiment [2] was “binds”.
